Test results published in the supplement of paper PMC10338343.
± gives the standard deviation. The list shows a part of the results, in another mix than the full data. The uncertainty is large for many entries. This is one part of the list.

What was measured:
[1] = system: MILI (PIWIL2) piRISC loaded with L1MC piRNA (26 nt); experiment: pre-steady-state target cleavage rate (min^-1); higher = faster piRNA-guided slicing of the target; settings: guide: L1MC piRNA 5'p-UAACUAAAUACUAUGCAAGCUGUAGG
In short: (§1)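 With or without 500 nM GTSF1 partner protein, 1 nM active affinity-purified piRISC carrying one synthetic guide was mixed with 0.1 nM transcribed, DNA-blocked target RNA library in HEPES–potassium acetate buffer at 33 °C for 0–8 or 0–960 min. Uncleaved targets were sequenced and normalised to depth and to weakly complementary targets, three trials were pooled, and k3 was capped at 0.0001 min^-1. The pre-steady-state cleavage rate came from a burst-and-steady-state fit.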

[2] = system: MIWI (PIWIL1) piRISC loaded with L1MC piRNA (30 nt); experiment: as above; settings: guide: L1MC piRNA 5'p-UAACUAAAUACUAUGCAAGCUGUAGGUCCU; auxiliary factor: none (no GTSF1)
In short: as §1

[3] = system: EfPiwi piRISC loaded with L1MC piRNA (26 nt); experiment: pre-steady-state target cleavage rate (min^-1); guide: L1MC piRNA 5'p-UAACUAAAUACUAUGCAAGCUGUAGG; MIWI and MILI are mouse PIWI proteins and EfPiwi is from a freshwater sponge; tags in brackets are library labels; higher = faster piRNA-guided slicing of the target
In short: as §1

[4] = auxiliary factor: none (no GTSF1)
[5] = auxiliary factor: 500 nM Ephydatia muelleri Gtsf1
[6] = auxiliary factor: none (no Gtsf1)

| Sequence | pre-steady-state target cleavage rate [1, 4] | pre-steady-state target cleavage rate [2] | pre-steady-state target cleavage rate [3, 5] | pre-steady-state target cleavage rate [3, 6] | pre-steady-state target cleavage rate ([1]; auxiliary factor: 500 nM mouse GTSF1) |
| --- | --- | --- | --- | --- | --- |
| UCCUGGAUCAGCUUCCAUAGUAUUUAGAAA | 0.000556 ± 0.0071 | 0.000846 ± 0.0062 | 0.00474 ± 0.0027 | 0.000296 ± 0.02 |  |
| UCCUGGAUGUCGUUGCUUAGUAAUUAGUUA | 0.00286 ± 0.0034 | 0.000709 ± 0.011 | 0.000288 ± 0.015 | 0.000173 ± 0.047 |  |
| UCCUGGAUGUCGAAGCAUAGUAUUUGAGUUA | 0.00203 ± 0.0031 | 0.000956 ± 0.0075 | 0.0002 ± 0.018 | 0.000423 ± 0.018 |  |
| UCCUGCUACACCUUGCAUAGUAUUUACAAA | 0.00134 ± 0.0058 | 0.00208 ± 0.0047 | 0.00179 ± 0.0021 | 0.000167 ± 0.043 |  |
| UCCUCCUACAGCUUGGUUAGUAUUUAGAAA | 0.00118 ± 0.0043 | 0.0012 ± 0.0043 | 0.00231 ± 0.0022 | 0.000171 ± 0.029 |  |
| UCCUGGAUGAGCUUGCAUAGUAUUAUCUAA | 0.000175 ± 0.016 | 0.00123 ± 0.0046 | 0.000843 ± 0.0034 | 0.000684 ± 0.01 |  |
| UCCUCCUACAGCUUGCAUAGAAUUUUCAAA | 0.000769 ± 0.0063 | 0.000385 ± 0.0062 | 0.00178 ± 0.0023 | < 0.0001 |  |
| UCCUGGUACAGGUUGCAUAGUAUUUAGAAA | 0.00161 ± 0.004 | 0.00242 ± 0.0034 | 0.00246 ± 0.0028 | 0.000273 ± 0.034 |  |
| UCCUGGAUGUGCUUCCAUAGAAUUUAGUUA | 0.000816 ± 0.0069 | 0.000828 ± 0.0074 | 0.000412 ± 0.0077 | 0.000358 ± 0.013 |  |
| UCCUGCUACAGCUUGCUAAGUAUUUAGUAA | 0.00125 ± 0.0046 | 0.00149 ± 0.0031 | 0.0012 ± 0.0039 | 0.000182 ± 0.038 |  |
| UCCUGGAACAGCUUCCAUACUAUUUAGUUA | 0.000181 ± 0.032 | 0.000652 ± 0.011 | 0.00201 ± 0.0028 | 0.00021 ± 0.028 |  |
| UCCUGGAUGUCGAACCUUUGUAUUUAGUUA | 0.000279 ± 0.012 | 0.000358 ± 0.011 | 0.000338 ± 0.013 | 0.000184 ± 0.031 |  |
| UCCUGGUACAGCUUGCAUUCAAUUUAGAAA | 0.00107 ± 0.0069 | 0.000812 ± 0.0078 | 0.000354 ± 0.0096 | 0.000203 ± 0.03 |  |
| UCCUGGUACAGCUUGCAUAGAUUUUUCAAA | 0.00148 ± 0.0071 | 0.000277 ± 0.012 | 0.00074 ± 0.0078 | 0.000349 ± 0.035 |  |
| UCCUGCUACAGCUUGCAUAGUAAAUAGUAA | 0.00101 ± 0.0056 | 0.00194 ± 0.0035 | 0.00351 ± 0.0022 | 0.00014 ± 0.038 |  |
| UCCUCCUAGAGCUUGCAUAGUAUUUUCAAA | 0.000733 ± 0.0068 | 0.0012 ± 0.0033 | 0.00252 ± 0.0022 | 0.000337 ± 0.016 |  |
| UCCUCCAUCAGCUUGCAUAGUAUUUUCAAA | 0.00141 ± 0.0035 | 0.00248 ± 0.0027 | 0.00384 ± 0.0024 | 0.00033 ± 0.016 |  |
| UCCUGGAACAGCUUGCAUAGAUUUUUCAAA | 0.00111 ± 0.0048 | 0.000416 ± 0.0077 | 0.000868 ± 0.0041 | 0.000466 ± 0.014 |  |
| UCCUGCUACAGCUUGCAUACAUUUUAGUAA | 0.000961 ± 0.0054 | 0.000564 ± 0.015 | 0.000176 ± 0.025 | < 0.0001 |  |
| UCCUGGAUGUCGAUGCUUACUAUUUAGUUA | 0.000437 ± 0.012 | 0.000679 ± 0.0098 | 0.000841 ± 0.0068 | 0.000134 ± 0.055 |  |
| UCCUCCUACAGCAACCAUAGUAUUUUCAAA | 0.000622 ± 0.0078 | 0.000262 ± 0.0098 | 0.000713 ± 0.0088 | 0.00019 ± 0.026 |  |
| UCCUGCUACAGCUUGCAUUCUAUUUAGUAA | 0.00067 ± 0.0093 | 0.00206 ± 0.0024 | 0.000397 ± 0.011 | 0.000142 ± 0.039 |  |

| Sequence | pre-steady-state target cleavage rate [1, 4] | pre-steady-state target cleavage rate [2] | pre-steady-state target cleavage rate [3, 5] | pre-steady-state target cleavage rate [3, 6] | pre-steady-state target cleavage rate ([1]; auxiliary factor: 500 nM mouse GTSF1) |
| --- | --- | --- | --- | --- | --- |
| UCCUGCUACAGCUUGCAUACAUUUUAGUUA | 0.00209 ± 0.0037 | 0.00111 ± 0.0095 | 0.000296 ± 0.01 | 0.000459 ± 0.01 |  |
| UCCUGGAUGUCGUUGCAAUCUAUUUAGUUA | 0.000581 ± 0.0094 | 0.000582 ± 0.0084 | 0.000449 ± 0.0084 | 0.000149 ± 0.06 |  |
| UCCUGCUACAGCAUGCAUAGUAUUUAGAAA | 0.00131 ± 0.0061 | 0.000445 ± 0.011 | 0.00416 ± 0.0014 | 0.000135 ± 0.048 |  |
| UCCUGGUACAGCUUGCAUAGUAUUAGUUA |  | 0.00252 ± 0.0033 | 0.00246 ± 0.0029 | 0.000787 ± 0.01 | 0.327 ± 0.053 |
| UCCUGGAUCAGCUUGCAUACAAUUUAGUAA | 0.000715 ± 0.0077 | 0.000415 ± 0.0072 | 0.00292 ± 0.0052 | 0.000279 ± 0.018 |  |
| UCCUGGAACAGCUUCCAUAGAAUUUAGUUA | 0.000497 ± 0.011 | 0.000986 ± 0.0058 | 0.00172 ± 0.0029 | 0.000481 ± 0.012 |  |
| UCCUGGAACAGCUUGGUUAGUAUUUUCAAA | 0.00109 ± 0.0063 | 0.000674 ± 0.0052 | 0.000445 ± 0.011 | 0.000186 ± 0.049 |  |
| UCCUGGAUGAGGAUGCAUAGUAUUUACAAA | 0.00109 ± 0.0048 | 0.00128 ± 0.0048 | 0.000698 ± 0.0043 | 0.000295 ± 0.022 |  |
| UCCUGGAUCAGCUUGCAUAGUAUUAUCUAA | 0.00184 ± 0.003 | 0.00284 ± 0.0032 | 0.00218 ± 0.0037 | 0.000203 ± 0.039 |  |
| UCCUGGAUGAGCUUGCAUUCAAUUUAGUAA | 0.000622 ± 0.0089 | 0.000253 ± 0.013 | 0.00177 ± 0.008 | 0.000396 ± 0.024 |  |
| UCCUGGUACAGCUUCGAUAGUAUUUACAAA | 0.000879 ± 0.0054 | 0.000864 ± 0.0049 | 0.00595 ± 0.0049 | 0.000395 ± 0.019 |  |
| UCCUCCUACACGUUGCAUAGUAUUUUCAAA | 0.00129 ± 0.0046 | 0.000944 ± 0.0068 | 0.00147 ± 0.0053 | 0.000174 ± 0.026 |  |
| UCCUGGAUCAGCUACCAUAGUAUUUAGUAA | 0.0025 ± 0.0026 | 0.00114 ± 0.0057 | 0.00372 ± 0.0052 | 0.000212 ± 0.032 |  |
| UCCUGGAUGUCGAUGCAUGAGUAUUUAGUUA | 0.00061 ± 0.0086 | 0.00066 ± 0.01 | 0.00036 ± 0.01 | 0.000324 ± 0.025 |  |
| UCCUGCUACAGCUUGCAUAGUAAAAAGUUA | 0.00195 ± 0.0032 | 0.00138 ± 0.0051 | 0.00305 ± 0.0016 | 0.000948 ± 0.0085 |  |
| UCCUGGAUCAGCUUGCAUACAAUUUACAAA | 0.00073 ± 0.0073 | 0.00109 ± 0.0071 | 0.000431 ± 0.0069 | 0.000278 ± 0.029 |  |
| UCCUGGAUGUGCUUGCAUAGUAUUAUGAAA | 0.00109 ± 0.0067 | 0.00231 ± 0.0033 | 0.000647 ± 0.0061 | 0.000547 ± 0.016 |  |
| UCCUCCUACAGCUUGCAUAGUUAAUACAAA | 0.000905 ± 0.0049 | 0.000835 ± 0.006 | 0.00102 ± 0.0043 | 0.000207 ± 0.026 |  |
| UCCUGGAUCAGCUAGCAUAGUAUUUUCAAA | 0.00148 ± 0.0042 | 0.00143 ± 0.0053 | 0.00203 ± 0.0046 | 0.000201 ± 0.026 |  |
| UCCUGGUACAGCUUGCAUAGUAUUUAUUA | 0.00176 ± 0.0054 | 0.00116 ± 0.0073 | 0.00326 ± 0.0038 | 0.000928 ± 0.014 |  |
| UCCUGCUACAGCUUGCAUACAUAAAUCAAA [g12:g25:cont:t1A] | 0.000873 ± 0.0065 | 0.000742 ± 0.014 | 0.000657 ± 0.011 | < 0.0001 |  |
| UCCUGGAUGUGCUUGCAUUCAUAAAUCAAA [g13:g20:cont:t1A] | 0.00031 ± 0.014 | 0.000477 ± 0.0095 | < 0.0001 | 0.000353 ± 0.018 |  |

Quoted at random: two records from the list.

| Sequence | pre-steady-state target cleavage rate [1, 4] | pre-steady-state target cleavage rate [2] | pre-steady-state target cleavage rate [3, 5] | pre-steady-state target cleavage rate [3, 6] | pre-steady-state target cleavage rate ([1]; auxiliary factor: 500 nM mouse GTSF1) |
| --- | --- | --- | --- | --- | --- |
| UCCUGGAUGUCGAUGCAUGAGUAUUUAGUUA | 0.00061 ± 0.0086 | 0.00066 ± 0.01 | 0.00036 ± 0.01 | 0.000324 ± 0.025 |  |
| UCCUCCUACAGCUUGCAUAGUUAAUACAAA | 0.000905 ± 0.0049 | 0.000835 ± 0.006 | 0.00102 ± 0.0043 | 0.000207 ± 0.026 |  |
